Experimental data from PubChem BioAssay AID504467 (National Center for Advancing Translational Sciences (NCATS), 2011).
Screen size: about 330,000 compounds; about 7,700 (2.3%) were called active. This list was built around the results that the source calls inconclusive (neither active nor inactive); the mix of calls is not that of the screen. Calls come from the whole dose curve; as a rule, active = well fitted inhibition curve with a large enough effect; inconclusive = small, poorly fitted or top-dose-only effect, or effect the other way; inactive = flat fitted curve, though single readings scatter. Where the call is inconclusive, the potency comes from a doubtful curve fit.

Assay: qHTS screen for small molecules that inhibit ELG1-dependent DNA repair in human embryonic kidney (HEK293T) cells expressing luciferase-tagged ELG1; note: nearly all actives have a fitted effect of over 55% in size
Conditions: HEK293T ELG1-luciferase reporter, luminescence, 16 h, DNA damage induced by 5-fluorouridine; series mostly up to 46.1 µM
Summary of the method: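 DMSO vehicle served as the neutral condition. Each well held 2,000 cells given 5-fluorouridine plus compound; after 16 hr at 37 °C/5% CO2, ONE-Glo was added and luciferase measured 30 min later.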
Potency is the fitted concentration of half-maximal effect.

Row | Compound | Potency
1 | COc1cc(OC)cc(C(=O)NC2CCN(C(=O)N3c4ccccc4Sc4ccccc43)CC2)c1 | active: 13 µM
2 | O=C(/C=C/c1ccco1)Nc1ccc(Cl)c(S(=O)(=O)N2CCOCC2)c1 | active: 16.4 µM
3 | O=C(NCCN1CCOCC1)c1ccncc1 | inactive
4 | COc1ccc(Cc2nnc(SCC(=O)N3CCCCC3)o2)cc1 | inactive
5 | CC(C)(C)OC(=O)N1CCC[C@H]1c1nnc(SC/C=C/c2ccccc2)o1 | inactive
6 | Cn1c(=O)[nH]c(=O)c2c1nc(N1CCCC1)n2CCCSc1nc2ccccc2o1 | inconclusive: 14.6 µM [inhibitor, single point]
7 | CCOc1cc(/C=N\Nc2nc(-c3ccc(C)cc3)c(NC(C)=O)s2)ccc1O | inactive
8 | COc1ccc(C(=O)N(Cc2ccccc2)Cc2cc3cc4c(cc3[nH]c2=O)OCCO4)cc1 | inactive
9 | COc1ccc(-n2cnc3cc(C(=O)N4CCOCC4)ccc32)cc1 | inconclusive: 8.2 µM [activator, partial curve]
10 | CCc1ccccc1NC(=O)CSc1nnc(CNC(=O)c2ccco2)n1C | inactive
11 | CCOC(=O)Cc1csc(SCC(=O)Nc2oc(C)c3c(C)n[nH]c(=O)c23)n1 | inactive
12 | COc1ccccc1NC(=O)C1=C(C)NC(=O)NC1c1ccccc1F (stereo not drawn) | inactive
13 | COc1ccc(-c2nc(-c3cccnc3)no2)cc1OC | inconclusive: 18.3 µM [activator, partial curve]
14 | CCOc1ccc(NC(=O)CSc2nccn2C)cc1 | inconclusive: 20.6 µM [activator, partial curve]
15 | COc1ccc(C/C(O)=C(\C#N)c2nc3ccccc3[nH]2)cc1OC | inconclusive: 25.9 µM [inhibitor, partial curve, poor fit]
16 | NC(=O)c1cc(S(=O)(=O)N2CCc3ccccc3C2)cs1 | inconclusive: 20.6 µM [inhibitor, single point]
17 | CCc1cc2c(=O)c(-c3nc4ccccc4n3C)c(C)oc2c(CN2CCOCC2)c1O | inactive
18 | COc1ccc(C(=O)CCC(=O)N2CCN(c3cc(C)ccc3C)CC2)cc1 | inactive
19 | C=CCc1c(C)nc(-c2ccccc2)nc1N/N=C/c1ccncc1 | inconclusive: 29.1 µM [inhibitor, single point]
20 | COc1ccc(-c2csc(NC(=O)C3CCN(c4ncnc5sc(C)c(C)c45)CC3)n2)cc1OC | active: 5.17 µM
21 | O=C(NCc1ccco1)c1scc2c1OCCO2 | inconclusive: 29.1 µM [inhibitor, single point]
22 | Cc1cc2c(n1-c1ccc(C(=O)O)cc1)CCCCC2 | inconclusive: 9.2 µM [activator, partial curve, poor fit]
23 | O=C(Cc1ccccc1)N1CCc2ccccc21 | inconclusive: 23.1 µM [activator, partial curve]
24 | Fc1cccc(/C=N/Nc2ccc(Cl)nn2)c1 | inconclusive: 29.1 µM [activator, single point]
25 | Nn1c(-c2ccccn2)nnc1-c1ccccn1 | inconclusive: 18.4 µM [activator, partial curve]

Row | Compound | Potency
26 | COc1ccc(CC(=O)Nc2oc(-c3ccccc3)c(-c3ccccc3)c2C#N)cc1OC | active: 23.1 µM
27 | COC(=O)CC(c1ccc(C#N)cc1)n1c(C)ccc1C (stereo not drawn) | inactive
28 | OCCNc1nc(Nc2ccc(Cl)c(Cl)c2)nc2ccccc12 | inconclusive: 35.5 µM [inhibitor, single point]
29 | Cc1ccc(NC(=O)CNC(C)c2ccccc2)cc1 (stereo not drawn) | inconclusive: 14.6 µM [activator, partial curve]
30 | N#Cc1ccc(Oc2cnccn2)cc1 | inactive
31 | Fc1cccc(COc2ccccc2C(=S)N2CCCC2)c1 | inactive
32 | CC(=O)Nc1ccc(C(=O)N/N=C/c2cc(Br)cc(Br)c2O)cc1 | inconclusive: 5.17 µM [inhibitor, partial curve, poor fit]
33 | COc1cc(NS(C)(=O)=O)ccc1Nc1c2ccccc2nc2ccccc12 | inconclusive: 35.5 µM [inhibitor, single point]
34 | CC(C)(C)c1cc(NC(=O)Nc2ccccc2)no1 | inconclusive: 3.26 µM [activator, full curve]
35 | Cc1cccc[n+]1CC(=O)Nc1ccc([N+](=O)[O-])cc1 | inactive
36 | O=C(CS(=O)(=O)Cc1ccccc1)N1CCN(c2ccccc2F)CC1 | inactive
37 | N#Cc1nc(-c2ccc(Cl)cc2)oc1NCC1CCCO1 (stereo not drawn) | inconclusive: 18.3 µM [activator, partial curve]
38 | Cc1cc(SCC(=O)Nc2cccc(S(=O)(=O)NC3=NCCCCC3)c2)nc2ccccc12 | inconclusive: 20.6 µM [inhibitor, single point]
39 | COc1ccc2[nH]cc(CCNC(=O)c3ccc4ccccc4n3)c2c1 | inconclusive: 35.5 µM [inhibitor, single point]
40 | CS(=O)(=O)Nc1ccc(C2=NN(C(=O)C3CCCCC3)C(c3cccs3)C2)cc1 (stereo not drawn) | inconclusive: 20.6 µM [inhibitor, single point]
41 | CCc1cccc2c(C(=O)COC(=O)[C@@H]3CC(O)CN3S(=O)(=O)c3ccccc3[N+](=O)[O-])c[nH]c12 (stereo partly drawn) | inconclusive: 6.51 µM [inhibitor, single point]
42 | COC(=O)C1=C(C)N(c2cc(C)cc(C)c2)/C(=C/c2ccco2)C1=O | inconclusive: 23.1 µM [inhibitor, single point]
43 | O=C(CN1CCN(S(=O)(=O)c2ccccc2[N+](=O)[O-])CC1)Nc1ccc(N2CCOCC2)cc1 | inconclusive: 18.3 µM [inhibitor, partial curve, poor fit]
44 | COc1cccc(C(=O)C2CCCN(C(=O)c3ccc(C#CC(C)(C)O)cc3)C2)c1 (stereo not drawn) | inconclusive: 23.1 µM [inhibitor, single point]
45 | COc1ccc(CCNC(=O)CCS(=O)(=O)c2ccc3c(c2)NC(=O)C(C)S3)cc1OC (stereo not drawn) | inactive
46 | O=C(COC(=O)c1cccc(F)c1)Nc1ccc2c(c1)OCCO2 | inconclusive: 20.6 µM [activator, partial curve, poor fit]
47 | CC(=O)c1c(C)[nH]c(C(=O)CSc2nnc(C)s2)c1C | inconclusive: 7.3 µM [activator, partial curve, poor fit]
48 | COc1ccc(CCC(=O)Nc2cc(Cl)ccc2OC)cc1 | inconclusive: 16.4 µM [inhibitor, partial curve]
49 | CCn1nc(C)cc1C(=O)N1CCCC(N(C)CCc2ccc(OC)c(OC)c2)C1 (stereo not drawn) | inconclusive: 29.1 µM [inhibitor, single point]
50 | CCCCNC(=S)NNC(=O)c1ccc(Br)o1 | inactive

Part of the list above in another layout:

| Row | Compound | Potency |
| --- | --- | --- |
| 47 | CC(=O)c1c(C)[nH]c(C(=O)CSc2nnc(C)s2)c1C | inconclusive: 7.3 µM [activator, partial curve, poor fit] |
| 48 | COc1ccc(CCC(=O)Nc2cc(Cl)ccc2OC)cc1 | inconclusive: 16.4 µM [inhibitor, partial curve] |
| 49 | CCn1nc(C)cc1C(=O)N1CCCC(N(C)CCc2ccc(OC)c(OC)c2)C1 (stereo not drawn) | inconclusive: 29.1 µM [inhibitor, single point] |

(cont.)

Row | Compound | Potency
51 | Cc1ccc(-c2cc(C(=O)N/N=C/c3ccco3)[nH]n2)cc1 | inconclusive: 29.1 µM [activator, partial curve, poor fit]
52 | CCCC[C@@H]1CNCCN1CCCc1cc(OC)c(OC)c(OC)c1 | inconclusive: 2.82 µM [activator, partial curve, poor fit]
53 | CC(=O)Nc1ccc(Sc2ncnc3scc(-c4ccccc4)c23)cc1 | inactive
54 | O=C(O)c1cc(-c2c[nH]c3ccccc23)nc2ccc3ccccc3c12 | inconclusive: 20.6 µM [activator, single point]
55 | Cc1ccc2nc3n(c(=O)c2c1)-c1ccccc1C(=O)NC3Cc1ccc(O)cc1 (stereo not drawn) | inactive
56 | CCOC(=O)c1cnc(SCC(C)C)nc1N | inconclusive: 8.2 µM [activator, partial curve]
57 | COc1ccc(-c2nn(-c3ccccc3)cc2CO)cc1 | inconclusive: 4.61 µM [activator, partial curve]
58 | COC(c1ccc(Cl)cc1)(c1ccc(Cl)cc1)C(Oc1nc(C)cc(C)n1)C(=O)O (stereo not drawn) | inactive
59 | CC12CCC(C/C1=N/O)C2(C)CBr (stereo not drawn) | inactive
60 | Cc1nn(-c2ccc(N3CCOCC3)nn2)c(C)c1CCC(=O)Nc1ccccc1 | inconclusive: 8.2 µM [activator, partial curve, poor fit]
61 | CCN(CC)S(=O)(=O)c1cc(NC(=O)C(C)OC(=O)c2[nH]c(C)c(C(C)=O)c2C)ccc1C (stereo not drawn) | active: 10.3 µM
62 | CC(=O)Oc1ccc(-c2cccc(C(=O)N3CCCCC3)c2)cc1 | inconclusive: 25.9 µM [activator, single point]
63 | COc1cccc(/C=N/NC(=O)CNC(=O)CCc2ccccc2)c1O | inconclusive: 29.1 µM [inhibitor, single point]
64 | Cc1ccc(C2(c3noc(CN4CCC(c5ccncc5)CC4)n3)CCCC2)cc1 | active: 16.4 µM
65 | CC(C)N1C(=O)/C(=C\c2nc3ccccc3c(=O)[nH]2)c2ccccc21 | inconclusive: 29.1 µM [inhibitor, single point]
66 | CCOc1cc(/C=N/O)ccc1OCC(=O)Nc1cccc(C)c1 | inactive
67 | COc1cn(-c2ccccc2)nc1C(=O)Nc1ccc(C)cc1 | inconclusive: 9.2 µM [activator, partial curve]
68 | COc1cccc(/C=C(\C#N)C(=O)NC2CCS(=O)(=O)C2)c1 (stereo not drawn) | inconclusive: 20.6 µM [activator, partial curve, poor fit]
69 | COC(=O)c1sc(NC(=O)c2c(C)noc2C)nc1C | inactive
70 | O=C(N/N=C/c1ccc(OC(F)F)cc1OC(F)F)c1cccc(S(=O)(=O)N2CCOCC2)c1 | inactive
71 | C=CCNC(=O)c1sc(-c2ccccc2)nc1C | inconclusive: 29.1 µM [activator, single point]
72 | CC(=O)Oc1cccc(/C=c2\sc3nc(-c4ccco4)nn3c2=O)c1 | inconclusive: 16.4 µM [activator, single point]
73 | O=C(CNc1n[nH]c(=O)[nH]c1=O)N/N=C/C1CC=CCC1 (stereo not drawn) | inactive
